In PMC11645656, “MRGPRX4 mediates phospho-drug associated pruritus in a humanized mouse model” (Science translational medicine, 2024):
Several values for one entry are separate records, joined by “and”; a condition that tells them apart may be missing. Equal values may be shown once. This continues a long series; more values of the same kind are listed elsewhere.

Protein sequences, listed by entry. Tags and fused reporters are not part of them.
UniProt Q96LA9, whole entry L83S/Y250A: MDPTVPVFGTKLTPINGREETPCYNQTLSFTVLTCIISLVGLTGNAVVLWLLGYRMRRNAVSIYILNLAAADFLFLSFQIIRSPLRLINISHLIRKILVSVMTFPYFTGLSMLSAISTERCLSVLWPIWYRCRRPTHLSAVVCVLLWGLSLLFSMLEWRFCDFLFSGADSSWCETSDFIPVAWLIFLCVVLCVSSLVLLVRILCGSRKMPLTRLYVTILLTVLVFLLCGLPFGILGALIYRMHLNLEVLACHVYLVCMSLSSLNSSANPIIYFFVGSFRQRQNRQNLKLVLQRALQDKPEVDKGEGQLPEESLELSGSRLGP

Experiments:
MRGPRX4 Y250A = target: T1, MRGPRX4 Y250A (Homo sapiens, UniProt Q96LA9, L83S/Y250A); assay: Calcium mobilization assay (FLIPR), MRGPRX4 Y250A mutant; type: cell-based
T1 construct: expressed in transfected cells; host or cells: HEK293T, transient
Excerpt: Fig. 3. […] (A) Cryo-EM density map of MRGPRX4-Gq in complex with fospropofol. (B) The density map of fospropofol and R82 of MRGPRX4. (C and D) Key molecular interactions between fospropofol and the hydrophilic (C) and hydrophobic (D) part of the agonist binding pocket of MRGPRX4. Amino acid residues interacting with fospropofol are shown as sticks. Hydrogen bond is shown as cyan dashed lines. […] Data are from at least three independent experiments, each performed in triplicate, and reported as the mean ± SEM. (E) and (F) were collected from the same sets of experiments.
To generate murine Mrgprs expressing cells, HEK293T cells (ATCC) were seeded on poly-D-lysine coated 96 well plate at 25,000 cells per well one day prior to transfection. HEK293T cells were transiently co-transfected with the mammalian expression plasmids carrying cDNA encoding the murine Mrgpr genes and plasmid inserted with cDNA encoding murine α-subunit of the heterotrimeric G15 protein (Gα15) in triplicates using Lipofectamine LTX reagents (Thermo Scientific). To generate WT, S83L, and alanine mutant MRGPRX4-expressing cells, HEK293T cells were seeded on poly-D-lysine coated 384 well plate at 12,000 cells per well one day prior to transfection. Mammalian expression plasmids pLX304 (vector from Addgene) carrying different MRGPRX4 coding sequences were transiently transfected into HEK293T cells in triplicates with Lipofectamine LTX reagents (Thermo Scientific). Intracellular calcium mobilization assays were performed after one day of transfection. Murine Mrgprs tested include Mrgpra1, Mrgpra2a, Mrgpra2b, Mrgpra3, Mrgpra4, Mrgpra6, Mrgpra9, Mrgpra10, Mrgpra11, Mrgpra12, Mrgpra14, Mrgprb5, Mrgprb6, Mrgprb10, Mrgprb11, and Mrgprc11. WT and mutant MRGPRX4 constructs tested include WT, S83L, R82A, R86A, R95A, W158A, Y250A, and Y254A.
To generate MRGPRX4 mutant constructs, site-directed mutagenesis was performed using Q5® Site-Directed Mutagenesis Kit (New England Biolabs). The primers were designed by the NEBaseChanger tool, with forward primers spanning designated mutated sequence corresponding to the desired amino acid substitutions. The plasmids with WT MRGPRX4 sequence served as the templates for polymerase chain reaction (PCR) amplification with Q5 high-fidelity polymerase and respective primer pairs according to the manufacturer’s conditions. Then, the linear PCR products underwent phosphorylation, ligation, and simultaneous degradation of template DNA by incubating them with a KLD enzyme mix consisting of T4 polynucleotide kinase, T4 DNA ligase, and DpnI at room temperature for 5 min. Subsequently, the mutated circular plasmids were transformed into NEB 5-alpha competent E. coli by heat-shock method, and the successfully transformed bacteria were selected on LB plates with selection antibiotics. The next day, the transformant colonies were picked, expanded in LB broth containing selection antibiotics overnight. Plasmids were isolated using QIAprep Spin Miniprep Kit (Qiagen) and subjected to sequencing to confirm the mutation.

[1] = system: MRGPRX4-expressing HEK293 cells (Gαq signaling pathway); assay: Pharmacological blocker experiments: phospho-drug evoked calcium response in MRGPRX4-expressing HEK293 cells after inhibitor preincubation; conditions: + YM254890

Q: What does the source list for `O=C1NC(c2ccccc2)(c2ccccc2)C(=O)N1COP(=O)(O)O` [Fosphenytoin]?
A: Calcium mobilization response, dose-response replicate data (Fig. 3E and 3F) (MRGPRX4 Y250A; concentration 188 pM): 13.7553 and 14.7456 and 4.5118 and 4.057 and 0.1844 and 1.844 and 3.864 and -0.8174 and 10.7747; Calcium mobilization response, dose-response replicate data (Fig. 3E and 3F) (MRGPRX4 Y250A; concentration 565 pM): 17.0565 and 10.7842 and 18.7071 and 3.504 and 4.61 and 1.844 and 4.31 and 7.208 and 16.3478; Calcium mobilization response, dose-response replicate data (Fig. 3E and 3F) (MRGPRX4 Y250A; concentration 1.69e-9 M): 19.3674 and 16.0661 and 19.0373 and 5.164 and 2.951 and 0.7377 and 8.1 and 12.781 and 20.5833; Calcium mobilization response, dose-response replicate data (Fig. 3E and 3F) (MRGPRX4 Y250A; concentration 5.08e-9 M): 13.095 and 13.7553 and 19.0373 and 7.377 and 5.717 and 3.504 and 6.539 and 4.533 and 14.3415; Calcium mobilization response, dose-response replicate data (Fig. 3E and 3F) (MRGPRX4 Y250A; concentration 1.52e-8 M): 19.6975 and 18.7071 and 21.6782 and 8.483 and 6.823 and 4.61 and 14.7873 and 8.545 and 19.4687; Calcium mobilization response, dose-response replicate data (Fig. 3E and 3F) (MRGPRX4 Y250A; concentration 4.57e-8 M): 19.6975 and 18.7071 and 2.951 and 7.93 and 7.377 and 11.2205 and 10.9976 and 15.0102; Calcium mobilization response, dose-response replicate data (Fig. 3E and 3F) (MRGPRX4 Y250A; concentration 1.37e-7 M): 13.7553 and 14.4155 and 22.9987 and 10.1429 and 8.483 and 11.8893 and 15.2331 and 22.1438; Calcium mobilization response, dose-response replicate data (Fig. 3E and 3F) (MRGPRX4 Y250A; concentration 4.12e-7 M): 11.1143 and 12.1046 and 16.7264 and 9.036 and 10.6962 and 10.1429 and 5.87 and 10.1059 and 20.1375; Calcium mobilization response, dose-response replicate data (Fig. 3E and 3F) (MRGPRX4 Y250A; concentration 1.23e-6 M): 17.3866 and 17.7168 and 9.464 and 4.61 and 5.717 and 10.6962 and 11.6664 and 6.539 and 17.6853; Calcium mobilization response, dose-response replicate data (Fig. 3E and 3F) (MRGPRX4 Y250A; concentration 3.7e-6 M): 12.1046 and 11.1143 and 9.464 and 5.164 and 6.27 and 7.93 and 6.316 and 9.437 and 20.5833; Calcium mobilization response, dose-response replicate data (Fig. 3E and 3F) (MRGPRX4 Y250A; concentration 1.11e-5 M): 16.7264 and 9.794 and 5.502 and 4.61 and 10.1429 and 9.59 and 8.768 and 12.3351 and 10.1059; Calcium mobilization response, dose-response replicate data (Fig. 3E and 3F) (MRGPRX4 Y250A; concentration 3.33e-5 M): 10.1239 and -0.7692 and 3.521 and 6.27 and 10.6962 and 7.93 and 1.412 and 17.0165 and 11.8893; Calcium mobilization response, dose-response replicate data (Fig. 3E and 3F) (MRGPRX4 Y250A; concentration 0.0001 M): 1.541 and -1.76 and 0.8804 and 1.291 and 3.504 and 5.164 and 5.647 and 9.883 and 8.3225; calcium response trace, fig. S2B ([1]; Time 3.296 s): 1.009 (3×) and 1.002 and 0.9992 and 1.001 and 1.005; calcium response trace, fig. S2B ([1]; Time 5.8096 s): 1.008 and 0.9983 and 1.01 (2×) and 1.004 and 1.0064; calcium response trace, fig. S2B ([1]; Time 8.3136 s): 1.008 (2×) and 0.9951 and 1.007 and 1.01 and 1 and 1.009; calcium response trace, fig. S2B ([1]; Time 10.8264 s): 1.007 and 0.9929 and 0.9975 and 1.002 and 1.016 and 1.005 and 1.012; calcium response trace, fig. S2B ([1]; Time 13.3408 s): 0.9992 and 0.9966 and 1.008 (2×) and 1.011 and 1.002 and 1.009; calcium response trace, fig. S2B ([1]; Time 15.8536 s): 1.006 (2×) and 0.9979 and 0.9997 and 1.015 and 1.01 and 1.0003; calcium response trace, fig. S2B ([1]; Time 18.3672 s): 1.01 and 0.9906 and 1.001 and 1 and 0.9989 and 1.017 and 1.015; calcium response trace, fig. S2B ([1]; Time 20.8808 s): 1.013 and 1.021 and 1.003 and 1.016 and 1.018 and 1.029; calcium response trace, fig. S2B ([1]; Time 23.3848 s): 1.02 and 1.017 (2×) and 1.022 and 1.019 and 1.032; calcium response trace, fig. S2B ([1]; Time 25.8984 s): 1.022 and 1.032 and 1.016 (2×) and 1.027 and 1.044; calcium response trace, fig. S2B ([1]; Time 28.392 s): 1.034 and 1.029 and 1.012 and 1.021 and 1.025 and 1.043; calcium response trace, fig. S2B ([1]; Time 30.8952 s): 1.031 (2×) and 1.026 and 1.0299 and 1.027 and 1.044; calcium response trace, fig. S2B ([1]; Time 33.3896 s): 1.034 and 1.029 and 1.021 and 1.024 and 1.038 and 1.047; calcium response trace, fig. S2B ([1]; Time 35.8728 s): 1.046 and 1.033 and 1.024 and 1.026 and 1.0339 and 1.047; calcium response trace, fig. S2B ([1]; Time 38.3656 s): 1.044 and 1.033 and 1.025 and 1.027 and 1.036 and 1.051; calcium response trace, fig. S2B ([1]; Time 40.86 s): 1.043 and 1.039 and 1.02 and 1.023 and 1.04 and 1.051; calcium response trace, fig. S2B ([1]; Time 43.3632 s): 1.051 and 1.026 and 1.021 and 1.023 and 1.033 and 1.043; calcium response trace, fig. S2B ([1]; Time 45.8664 s): 1.048 and 1.021 and 1.028 and 1.024 and 1.029 and 1.054; calcium response trace, fig. S2B ([1]; Time 48.38 s): 1.041 and 1.021 and 1.027 and 1.023 and 1.035 and 1.052; calcium response trace, fig. S2B ([1]; Time 50.8936 s): 1.039 and 1.031 and 1.0228 and 1.019 and 1.0393 and 1.047; calcium response trace, fig. S2B ([1]; Time 53.4072 s): 1.04 and 1.026 and 1.028 (2×) and 1.022 and 1.046; calcium response trace, fig. S2B ([1]; Time 55.9112 s): 1.041 and 1.028 (2×) and 1.023 and 1.033; calcium response trace, fig. S2B ([1]; Time 58.4248 s): 1.043 and 1.028 and 1.021 and 1.025 and 1.0297 and 1.054; calcium response trace, fig. S2B ([1]; Time 60.9288 s): 1.0378 and 1.011 and 1.019 and 1.027 and 1.032 and 1.046; calcium response trace, fig. S2B ([1]; Time 63.444 s): 1.036 and 1.02 and 1.017 and 1.0191 and 1.033 and 1.052; calcium response trace, fig. S2B ([1]; Time 65.9256 s): 1.028 and 1.018 and 1.022 and 1.027 and 1.033 and 1.048; calcium response trace, fig. S2B ([1]; Time 68.4192 s): 1.039 and 1.033 and 1.021 and 1.028 and 1.017 and 1.034 and 1.041; calcium response trace, fig. S2B ([1]; Time 70.9024 s): 1.035 and 1.0348 and 1.011 and 1.024 and 1.018 and 1.032 and 1.044; calcium response trace, fig. S2B ([1]; Time 73.3864 s): 1.037 and 1.033 and 1.02 and 1.016 and 1.018 and 1.032 and 1.046; calcium response trace, fig. S2B ([1]; Time 75.8896 s): 1.033 and 1.007 and 1.024 (2×) and 1.016 and 1.0515; calcium response trace, fig. S2B ([1]; Time 78.3936 s): 1.041 (2×) and 1.026 and 1.006 and 1.025 and 1.022 and 1.04; calcium response trace, fig. S2B ([1]; Time 80.9064 s): 1.031 and 1.026 and 1.011 and 1.015 and 1.014 and 1.032 and 1.042; calcium response trace, fig. S2B ([1]; Time 83.4104 s): 1.034 and 1.021 and 1.012 and 1.02 and 1.013 and 1.03 and 1.037
